Taken from: PubChem BioAssay AID1259308 (NCATS, 2017)

Screen: 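Genes whose loss raises luciferase production in HEK293 cells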 (primary screen)
Cells: human HEK293 embryonic kidney cells stably expressing firefly luciferase (HEK-CMV-Luc2-Hygro)
Reagent: single siRNA against human genes, 0.8 pmol siRNA per well
Time to read-out: 72 h
Measured: 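Reporter luminescence and viable-cell signal on separate replicate plates, given as percent of non-targeting control and median/MAD z-scores, plus per-cell luciferase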
Direction: total luciferase, z-score and total luciferase, % of control: higher = more reporter protein produced
Active means: 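Active when the median/MAD z-score for overall luciferase is greater than 3; a gene was taken forward for validation with new siRNAs if at least two of its three siRNAs passed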
Meaning of the calls: active = raised luciferase; inactive = no rise
The deposit covers about 59,000 reagents; below is a random part of them. About 1,510 of them (2.6%) count as active. 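Calls use total luciferase alone and ignore viability, so some active siRNAs may act by altering cell number.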 A number with no mark means an inactive call. The numbers tell different reagents against one gene apart. Further read-outs or replicates are left out here.

What is on record for HUS1 (HUS1 checkpoint clamp component) #1?
total luciferase, z-score: -1.11; total luciferase, % of control: 59.9

What is on record for HUS1 (HUS1 checkpoint clamp component) #2?
total luciferase, z-score: -0.71; total luciferase, % of control: 67.8

What did the screen give for HUS1 (HUS1 checkpoint clamp component) #3?
total luciferase, z-score: 0.581; total luciferase, % of control: 93.4

For RGS17 (regulator of G protein signaling 17) #1, what was measured?
total luciferase, z-score: 3.64 (active); total luciferase, % of control: 154

What is on record for RGS17 (regulator of G protein signaling 17) #2?
total luciferase, z-score: -0.0616; total luciferase, % of control: 80.7

What did the screen give for RGS17 (regulator of G protein signaling 17) #3?
total luciferase, z-score: -0.112; total luciferase, % of control: 79.7

How did the screen score TLCD2 (TLC domain containing 2) #1?
total luciferase, z-score: 0.724; total luciferase, % of control: 96.3

What is on record for TLCD2 (TLC domain containing 2) #2?
total luciferase, z-score: 1.06; total luciferase, % of control: 103

How did the screen score TLCD2 (TLC domain containing 2) #3?
total luciferase, z-score: 5.04 (active); total luciferase, % of control: 182

For SEL1L2 (SEL1L2 adaptor subunit of SYVN1 ubiquitin ligase) #1, what does the deposit list?
total luciferase, z-score: -1.88; total luciferase, % of control: 44.5

With SEL1L2 (SEL1L2 adaptor subunit of SYVN1 ubiquitin ligase) #2, what was measured?
total luciferase, z-score: 0.699; total luciferase, % of control: 95.8

What is on record for SEL1L2 (SEL1L2 adaptor subunit of SYVN1 ubiquitin ligase) #3?
total luciferase, z-score: 0.434; total luciferase, % of control: 90.5

With YTHDF3 (YTH N6-methyladenosine RNA binding protein F3) #1, what was measured?
total luciferase, z-score: 0.923; total luciferase, % of control: 100

How did the screen score YTHDF3 (YTH N6-methyladenosine RNA binding protein F3) #2?
total luciferase, z-score: -0.88; total luciferase, % of control: 64.4

For YTHDF3 (YTH N6-methyladenosine RNA binding protein F3) #3, what does the deposit list?
total luciferase, z-score: 1.33; total luciferase, % of control: 108

With OR51F2 (olfactory receptor family 51 subfamily F member 2) #1, how do the results read?
total luciferase, z-score: -0.101; total luciferase, % of control: 79.9

For OR51F2 (olfactory receptor family 51 subfamily F member 2) #2, what was measured?
total luciferase, z-score: -1.09; total luciferase, % of control: 60.2

With OR51F2 (olfactory receptor family 51 subfamily F member 2) #3, what was measured?
total luciferase, z-score: 4.82 (active); total luciferase, % of control: 178

Looked up above.
Entry of SEL1L2 (SEL1L2 adaptor subunit of SYVN1 ubiquitin ligase) #3 under “total luciferase, % of control”: 90.5
HUS1 (HUS1 checkpoint clamp component) #1, total luciferase, % of control: 59.9
Result of TLCD2 (TLC domain containing 2) #2 in “total luciferase, z-score”: 1.06
OR51F2 (olfactory receptor family 51 subfamily F member 2) #2, total luciferase, % of control = 60.2
Value for HUS1 (HUS1 checkpoint clamp component) #3 in “total luciferase, z-score”: 0.581
Entry for SEL1L2 (SEL1L2 adaptor subunit of SYVN1 ubiquitin ligase) #2 under “total luciferase, % of control”: 95.8

More records follow.
For TTC22 (tetratricopeptide repeat domain 22) #1, what does the deposit list?
total luciferase, z-score: 0.284; total luciferase, % of control: 87.5

How did the screen score TTC22 (tetratricopeptide repeat domain 22) #2?
total luciferase, z-score: -0.296; total luciferase, % of control: 76

With TTC22 (tetratricopeptide repeat domain 22) #3, what was measured?
total luciferase, z-score: -0.145; total luciferase, % of control: 79

With URM1 (ubiquitin related modifier 1) #1, what was measured?
total luciferase, z-score: -0.671; total luciferase, % of control: 68.5

With URM1 (ubiquitin related modifier 1) #2, what does the deposit list?
total luciferase, z-score: 0.231; total luciferase, % of control: 86.5

What did the screen give for URM1 (ubiquitin related modifier 1) #3?
total luciferase, z-score: -0.863; total luciferase, % of control: 64.7

What is on record for FDXR (ferredoxin reductase) #1?
total luciferase, z-score: -0.199; total luciferase, % of control: 77.9

With FDXR (ferredoxin reductase) #2, what does the deposit list?
total luciferase, z-score: -0.225; total luciferase, % of control: 77.4

Which result is listed for FDXR (ferredoxin reductase) #3?
total luciferase, z-score: 4.99 (active); total luciferase, % of control: 181

With SPRR2G (small proline rich protein 2G) #1, how do the results read?
total luciferase, z-score: 0.42; total luciferase, % of control: 90.2

For SPRR2G (small proline rich protein 2G) #2, what does the deposit list?
total luciferase, z-score: 2.37; total luciferase, % of control: 129

What did the screen give for SPRR2G (small proline rich protein 2G) #3?
total luciferase, z-score: 0.0414; total luciferase, % of control: 82.7

What is on record for SRP54 (signal recognition particle 54) #1?
total luciferase, z-score: 0.133; total luciferase, % of control: 84.5

With SRP54 (signal recognition particle 54) #2, what was measured?
total luciferase, z-score: -1.25; total luciferase, % of control: 57.1

For SRP54 (signal recognition particle 54) #3, what does the deposit list?
total luciferase, z-score: -0.728; total luciferase, % of control: 67.4
